Laboratory results from paper PMC10709582.
These are yes or no findings as the source states them, for the method shown. Binding seen in cells or lysates may run through a third protein. Some entries that bind do so weakly or less than the wild type. Where a sequence is shown, tags or fusion partners need not be part of it.

Protein sequences, listed by entry. Tags and fused reporters are not part of them.
UniProt Q8N122: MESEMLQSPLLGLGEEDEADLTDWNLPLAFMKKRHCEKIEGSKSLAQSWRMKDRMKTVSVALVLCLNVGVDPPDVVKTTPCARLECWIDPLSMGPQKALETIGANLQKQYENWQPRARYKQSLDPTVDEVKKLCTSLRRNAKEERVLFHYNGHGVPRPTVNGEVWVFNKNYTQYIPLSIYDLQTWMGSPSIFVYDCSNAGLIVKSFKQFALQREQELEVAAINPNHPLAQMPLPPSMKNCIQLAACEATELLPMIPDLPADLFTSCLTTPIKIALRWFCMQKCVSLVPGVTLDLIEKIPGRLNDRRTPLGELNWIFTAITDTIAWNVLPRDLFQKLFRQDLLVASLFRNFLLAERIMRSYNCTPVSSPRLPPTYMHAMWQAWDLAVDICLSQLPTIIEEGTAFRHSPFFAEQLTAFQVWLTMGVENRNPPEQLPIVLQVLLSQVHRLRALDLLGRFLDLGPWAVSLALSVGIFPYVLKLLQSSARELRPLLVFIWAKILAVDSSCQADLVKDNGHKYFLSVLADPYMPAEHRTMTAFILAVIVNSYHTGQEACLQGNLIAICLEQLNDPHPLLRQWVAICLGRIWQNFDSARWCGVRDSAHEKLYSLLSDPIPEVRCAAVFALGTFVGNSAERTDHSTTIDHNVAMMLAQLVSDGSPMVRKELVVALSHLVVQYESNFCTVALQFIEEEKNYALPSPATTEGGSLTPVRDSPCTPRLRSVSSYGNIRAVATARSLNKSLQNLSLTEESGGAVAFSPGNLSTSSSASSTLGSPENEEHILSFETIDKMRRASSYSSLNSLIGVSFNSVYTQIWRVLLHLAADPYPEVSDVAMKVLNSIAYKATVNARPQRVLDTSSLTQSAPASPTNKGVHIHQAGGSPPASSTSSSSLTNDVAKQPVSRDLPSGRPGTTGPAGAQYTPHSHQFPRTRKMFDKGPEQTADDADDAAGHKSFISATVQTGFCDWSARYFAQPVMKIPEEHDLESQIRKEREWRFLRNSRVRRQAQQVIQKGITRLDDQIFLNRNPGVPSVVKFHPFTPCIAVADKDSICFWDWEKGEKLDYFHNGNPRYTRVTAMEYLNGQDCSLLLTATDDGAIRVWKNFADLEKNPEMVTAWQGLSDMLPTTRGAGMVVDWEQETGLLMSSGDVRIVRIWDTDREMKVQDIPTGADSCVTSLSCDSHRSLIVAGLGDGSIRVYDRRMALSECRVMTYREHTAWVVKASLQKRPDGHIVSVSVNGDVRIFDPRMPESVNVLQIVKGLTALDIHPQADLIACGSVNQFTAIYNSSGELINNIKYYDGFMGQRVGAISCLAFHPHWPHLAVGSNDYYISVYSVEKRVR

Columns and labels:
GST-FilGAP (373-748aa) [1] = biological target: T1, GST-FilGAP (373-748aa) (UniProt Q8N264); experiment: pull-down; GST-FilGAP (373-748aa) on glutathione sepharose with HEK293T cells lysed in buffer containing Triton X-100 (disrupts the mTOR complexes); only the target purified
T1 sequence: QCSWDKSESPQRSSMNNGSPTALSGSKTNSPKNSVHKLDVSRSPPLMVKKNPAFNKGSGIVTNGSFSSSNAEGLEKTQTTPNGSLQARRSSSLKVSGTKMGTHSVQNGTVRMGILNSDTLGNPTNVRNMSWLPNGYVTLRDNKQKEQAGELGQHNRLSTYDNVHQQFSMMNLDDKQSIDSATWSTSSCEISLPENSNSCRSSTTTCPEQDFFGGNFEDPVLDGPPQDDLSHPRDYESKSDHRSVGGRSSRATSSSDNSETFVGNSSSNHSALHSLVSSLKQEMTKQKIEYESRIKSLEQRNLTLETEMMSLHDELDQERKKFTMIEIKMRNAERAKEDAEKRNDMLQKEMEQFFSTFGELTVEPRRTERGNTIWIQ

GST-FilGAP (373-748aa) [2] = biological target: T1, GST-FilGAP (373-748aa); experiment: pull-down; purified GST-FilGAP (373-748aa) on glutathione Sepharose with HEK293T lysate in CHAPS buffer (0.3% CHAPS, 0.1 M NaCl, pH 7.5), 60 min at 4 °C; endogenous proteins blotted; also after siRNA against Raptor or Rictor, 100 nM Rapamycin or 500 nM Torin-1 for 1 h, or starvation in EBSS then DMEM with or without insulin; only the target purified
Flag-FilGAP (WT) = biological target: T2, Flag-FilGAP (WT) (UniProt Q8N264); experiment: co-IP; HEK293T cells co-transfected; lysed in CHAPS buffer; anti-Flag agarose beads, 1 h at 4 °C; blot with anti-Raptor or anti-Rictor antibody
T2 sequence: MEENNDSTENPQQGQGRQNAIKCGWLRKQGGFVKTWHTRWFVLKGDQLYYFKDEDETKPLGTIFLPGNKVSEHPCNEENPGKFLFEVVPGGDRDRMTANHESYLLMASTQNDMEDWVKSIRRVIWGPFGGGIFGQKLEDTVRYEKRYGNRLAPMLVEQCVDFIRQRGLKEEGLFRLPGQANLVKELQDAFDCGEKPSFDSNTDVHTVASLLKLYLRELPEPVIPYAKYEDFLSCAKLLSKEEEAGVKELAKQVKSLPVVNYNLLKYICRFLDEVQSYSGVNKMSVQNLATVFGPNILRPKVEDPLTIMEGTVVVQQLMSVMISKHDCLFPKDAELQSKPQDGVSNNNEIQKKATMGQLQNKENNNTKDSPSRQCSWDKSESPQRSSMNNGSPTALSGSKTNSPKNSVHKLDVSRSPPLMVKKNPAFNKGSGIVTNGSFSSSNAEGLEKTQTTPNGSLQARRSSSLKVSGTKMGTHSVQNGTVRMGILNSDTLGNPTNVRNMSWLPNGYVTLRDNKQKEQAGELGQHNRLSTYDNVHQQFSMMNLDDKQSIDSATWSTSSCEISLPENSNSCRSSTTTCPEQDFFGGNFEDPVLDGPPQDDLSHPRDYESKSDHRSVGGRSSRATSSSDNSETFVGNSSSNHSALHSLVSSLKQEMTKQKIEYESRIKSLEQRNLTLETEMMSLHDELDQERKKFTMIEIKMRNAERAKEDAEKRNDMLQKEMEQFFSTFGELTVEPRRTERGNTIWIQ

Row | binding (GST-FilGAP (373-748aa) [1]) | binding (GST-FilGAP (373-748aa) [2]) | binding (Flag-FilGAP (WT)) | Substance
1 | binds | binds | – | Raptor (endogenous, HEK293T) (from UniProt Q8N122 1-1335)
2 | – | – | binds | Myc-Raptor (from UniProt Q8N122 1-1335)
